Results taken from patent publication US10883962B2, “Electrical double layer in nanopores for detection and identification of molecules and submolecular units” (University of Kentucky Research Foundation, priority 2017, dated 2021).

Test: Nanopore double layer potential and ionic current signals of small molecule analytes

## O=C(O)CC(O)(CC(=O)O)C(=O)O [Citric Acid]
1 M NaCl case, p<0.05
  Ionic current signal, relationship to pH: inverse relationship to pH
Analyte 10 nM in NaF, Example 2
  Ionic current signal (Ips), trend: smaller negative magnitudes
Analyte 10^−8 M in NaF 10^−7 to 1 M, Example 1
  Double layer potential signal, relative magnitude: larger negative magnitude
pH 2.8, 3.9, 5.5 or 8.5, linear regression p>0.2
  Double layer potential signal, dependence on pH: not dependent on pH
